This passage reports log2 fold change results from the supplement of paper PMC10849652.

Amino acid sequences for entries named in this document (tags omitted). A change or cut given only in a name is not applied to a line headed by its entry.
UniProt Q9BU76: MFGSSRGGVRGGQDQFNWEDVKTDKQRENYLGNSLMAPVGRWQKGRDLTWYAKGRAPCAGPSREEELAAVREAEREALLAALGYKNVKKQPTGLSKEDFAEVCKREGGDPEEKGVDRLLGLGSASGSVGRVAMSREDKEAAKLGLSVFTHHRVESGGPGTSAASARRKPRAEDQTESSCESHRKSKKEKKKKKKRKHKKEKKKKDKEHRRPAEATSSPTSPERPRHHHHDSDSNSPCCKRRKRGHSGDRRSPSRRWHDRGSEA
UniProt Q96EY8: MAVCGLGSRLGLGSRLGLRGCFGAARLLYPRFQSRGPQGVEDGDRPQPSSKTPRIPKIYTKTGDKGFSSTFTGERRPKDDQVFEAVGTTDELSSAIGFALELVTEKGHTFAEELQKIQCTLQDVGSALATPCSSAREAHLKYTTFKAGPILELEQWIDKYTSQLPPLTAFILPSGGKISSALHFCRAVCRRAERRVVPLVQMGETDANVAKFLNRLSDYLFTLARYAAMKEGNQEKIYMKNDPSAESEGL
UniProt P25325: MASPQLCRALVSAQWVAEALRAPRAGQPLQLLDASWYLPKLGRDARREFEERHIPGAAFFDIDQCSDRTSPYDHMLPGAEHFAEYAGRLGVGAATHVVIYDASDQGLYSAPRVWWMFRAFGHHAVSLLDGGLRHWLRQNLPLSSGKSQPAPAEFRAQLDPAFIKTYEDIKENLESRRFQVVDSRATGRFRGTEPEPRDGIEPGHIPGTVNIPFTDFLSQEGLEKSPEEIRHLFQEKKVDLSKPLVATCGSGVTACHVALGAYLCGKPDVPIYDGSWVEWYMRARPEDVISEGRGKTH
UniProt P34949: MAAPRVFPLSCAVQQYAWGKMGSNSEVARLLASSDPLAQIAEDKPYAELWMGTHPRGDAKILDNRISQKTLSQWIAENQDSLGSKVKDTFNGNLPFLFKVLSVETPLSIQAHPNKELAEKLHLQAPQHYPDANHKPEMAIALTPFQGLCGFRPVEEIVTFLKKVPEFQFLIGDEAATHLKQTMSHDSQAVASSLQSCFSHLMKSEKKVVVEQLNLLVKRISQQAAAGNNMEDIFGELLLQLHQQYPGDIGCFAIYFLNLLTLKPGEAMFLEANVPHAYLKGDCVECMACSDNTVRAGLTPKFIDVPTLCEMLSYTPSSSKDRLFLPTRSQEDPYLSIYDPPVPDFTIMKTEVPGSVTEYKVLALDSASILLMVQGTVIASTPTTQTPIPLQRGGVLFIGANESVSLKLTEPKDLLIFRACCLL
UniProt P14174: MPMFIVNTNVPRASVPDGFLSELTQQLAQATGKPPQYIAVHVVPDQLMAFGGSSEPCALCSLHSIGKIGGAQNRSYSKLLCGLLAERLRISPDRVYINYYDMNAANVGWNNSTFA
UniProt Q9NXC5: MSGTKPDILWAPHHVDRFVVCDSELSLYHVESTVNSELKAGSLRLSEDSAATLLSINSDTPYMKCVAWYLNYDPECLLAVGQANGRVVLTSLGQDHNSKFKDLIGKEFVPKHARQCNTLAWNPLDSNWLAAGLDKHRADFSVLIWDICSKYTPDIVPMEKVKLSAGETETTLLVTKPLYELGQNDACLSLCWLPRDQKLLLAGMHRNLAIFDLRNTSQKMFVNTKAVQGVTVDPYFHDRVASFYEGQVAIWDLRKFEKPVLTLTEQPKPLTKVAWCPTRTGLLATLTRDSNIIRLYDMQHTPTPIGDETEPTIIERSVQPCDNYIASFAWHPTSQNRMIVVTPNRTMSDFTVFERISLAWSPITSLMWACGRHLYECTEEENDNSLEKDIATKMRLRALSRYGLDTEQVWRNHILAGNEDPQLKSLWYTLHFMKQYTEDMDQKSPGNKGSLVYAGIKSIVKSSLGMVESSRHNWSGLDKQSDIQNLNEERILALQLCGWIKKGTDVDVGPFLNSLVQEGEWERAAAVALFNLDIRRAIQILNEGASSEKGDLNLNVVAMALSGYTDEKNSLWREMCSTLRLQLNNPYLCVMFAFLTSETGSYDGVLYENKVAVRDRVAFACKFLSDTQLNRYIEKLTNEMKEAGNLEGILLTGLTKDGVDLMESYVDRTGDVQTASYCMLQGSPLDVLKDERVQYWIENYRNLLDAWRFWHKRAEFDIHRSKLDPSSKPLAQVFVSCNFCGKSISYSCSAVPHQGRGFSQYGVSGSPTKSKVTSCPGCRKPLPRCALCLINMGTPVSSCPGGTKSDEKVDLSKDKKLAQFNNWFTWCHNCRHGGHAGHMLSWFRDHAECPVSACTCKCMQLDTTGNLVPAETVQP
UniProt P49959: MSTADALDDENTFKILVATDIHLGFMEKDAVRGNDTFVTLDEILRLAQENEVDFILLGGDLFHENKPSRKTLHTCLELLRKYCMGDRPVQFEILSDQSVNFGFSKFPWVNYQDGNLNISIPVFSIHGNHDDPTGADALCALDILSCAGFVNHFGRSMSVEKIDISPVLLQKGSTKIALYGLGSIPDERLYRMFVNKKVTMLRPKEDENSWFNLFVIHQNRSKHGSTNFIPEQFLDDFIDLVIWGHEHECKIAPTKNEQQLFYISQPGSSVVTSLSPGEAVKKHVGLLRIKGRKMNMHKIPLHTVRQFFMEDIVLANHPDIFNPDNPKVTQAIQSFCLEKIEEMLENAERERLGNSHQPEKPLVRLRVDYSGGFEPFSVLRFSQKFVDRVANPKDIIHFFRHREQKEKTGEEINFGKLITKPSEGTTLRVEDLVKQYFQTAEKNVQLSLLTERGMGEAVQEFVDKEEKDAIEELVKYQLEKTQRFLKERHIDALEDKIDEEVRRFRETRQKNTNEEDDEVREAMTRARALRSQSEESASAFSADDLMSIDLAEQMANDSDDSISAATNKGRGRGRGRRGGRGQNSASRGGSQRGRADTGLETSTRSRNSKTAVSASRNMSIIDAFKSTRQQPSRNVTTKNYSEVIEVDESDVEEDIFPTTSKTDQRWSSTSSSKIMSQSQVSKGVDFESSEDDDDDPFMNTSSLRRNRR
UniProt A9UHW6: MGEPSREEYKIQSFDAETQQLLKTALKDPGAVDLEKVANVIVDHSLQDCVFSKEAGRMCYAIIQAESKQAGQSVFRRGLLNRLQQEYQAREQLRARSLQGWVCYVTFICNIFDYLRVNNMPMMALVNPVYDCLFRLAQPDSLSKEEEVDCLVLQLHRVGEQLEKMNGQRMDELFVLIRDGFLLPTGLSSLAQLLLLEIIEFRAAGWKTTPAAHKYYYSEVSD
UniProt Q8N4C8: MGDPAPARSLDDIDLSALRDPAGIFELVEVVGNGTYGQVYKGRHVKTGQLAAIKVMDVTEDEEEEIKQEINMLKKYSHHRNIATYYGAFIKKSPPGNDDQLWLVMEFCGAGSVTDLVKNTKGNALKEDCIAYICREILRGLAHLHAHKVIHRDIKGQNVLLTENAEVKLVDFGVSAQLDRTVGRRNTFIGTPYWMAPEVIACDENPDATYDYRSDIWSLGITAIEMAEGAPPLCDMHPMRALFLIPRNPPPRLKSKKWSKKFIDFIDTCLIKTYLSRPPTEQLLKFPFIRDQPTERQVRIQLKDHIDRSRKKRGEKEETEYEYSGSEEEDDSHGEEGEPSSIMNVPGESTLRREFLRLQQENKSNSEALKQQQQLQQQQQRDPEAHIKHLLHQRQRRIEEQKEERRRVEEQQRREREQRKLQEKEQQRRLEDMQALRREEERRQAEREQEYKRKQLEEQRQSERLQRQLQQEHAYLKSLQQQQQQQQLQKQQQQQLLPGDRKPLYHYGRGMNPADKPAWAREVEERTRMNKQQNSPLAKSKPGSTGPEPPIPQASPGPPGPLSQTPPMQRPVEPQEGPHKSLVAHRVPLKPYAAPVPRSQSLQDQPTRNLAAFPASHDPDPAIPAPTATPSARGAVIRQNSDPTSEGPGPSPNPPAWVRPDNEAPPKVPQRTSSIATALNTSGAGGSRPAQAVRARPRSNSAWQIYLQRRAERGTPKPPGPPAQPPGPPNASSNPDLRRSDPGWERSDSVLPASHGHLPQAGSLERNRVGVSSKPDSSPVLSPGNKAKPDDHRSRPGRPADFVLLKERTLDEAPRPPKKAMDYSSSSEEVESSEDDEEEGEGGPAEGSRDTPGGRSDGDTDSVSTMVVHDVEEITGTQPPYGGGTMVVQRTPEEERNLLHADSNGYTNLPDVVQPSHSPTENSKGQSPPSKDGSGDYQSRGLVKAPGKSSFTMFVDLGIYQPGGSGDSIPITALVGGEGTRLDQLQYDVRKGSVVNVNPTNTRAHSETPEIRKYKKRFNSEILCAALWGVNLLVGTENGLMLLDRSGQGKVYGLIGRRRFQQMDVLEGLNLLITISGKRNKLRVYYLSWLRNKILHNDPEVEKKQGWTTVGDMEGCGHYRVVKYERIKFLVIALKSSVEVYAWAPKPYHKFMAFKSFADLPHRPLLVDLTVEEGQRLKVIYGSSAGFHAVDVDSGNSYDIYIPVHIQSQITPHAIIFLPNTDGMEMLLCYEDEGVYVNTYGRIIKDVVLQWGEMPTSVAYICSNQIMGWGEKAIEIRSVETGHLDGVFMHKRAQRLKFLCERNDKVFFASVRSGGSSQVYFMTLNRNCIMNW
UniProt O95297: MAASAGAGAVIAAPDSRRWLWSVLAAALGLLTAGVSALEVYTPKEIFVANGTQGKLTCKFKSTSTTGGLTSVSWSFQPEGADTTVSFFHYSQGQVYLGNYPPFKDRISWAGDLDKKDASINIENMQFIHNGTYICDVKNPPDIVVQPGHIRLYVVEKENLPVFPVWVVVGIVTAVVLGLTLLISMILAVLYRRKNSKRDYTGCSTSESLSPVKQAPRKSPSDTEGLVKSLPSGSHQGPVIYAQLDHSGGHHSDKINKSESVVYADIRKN
UniProt O95563: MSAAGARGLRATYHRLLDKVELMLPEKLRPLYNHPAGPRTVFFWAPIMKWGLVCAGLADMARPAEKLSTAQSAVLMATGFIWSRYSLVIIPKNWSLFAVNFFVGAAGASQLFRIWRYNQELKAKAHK
UniProt Q96T76: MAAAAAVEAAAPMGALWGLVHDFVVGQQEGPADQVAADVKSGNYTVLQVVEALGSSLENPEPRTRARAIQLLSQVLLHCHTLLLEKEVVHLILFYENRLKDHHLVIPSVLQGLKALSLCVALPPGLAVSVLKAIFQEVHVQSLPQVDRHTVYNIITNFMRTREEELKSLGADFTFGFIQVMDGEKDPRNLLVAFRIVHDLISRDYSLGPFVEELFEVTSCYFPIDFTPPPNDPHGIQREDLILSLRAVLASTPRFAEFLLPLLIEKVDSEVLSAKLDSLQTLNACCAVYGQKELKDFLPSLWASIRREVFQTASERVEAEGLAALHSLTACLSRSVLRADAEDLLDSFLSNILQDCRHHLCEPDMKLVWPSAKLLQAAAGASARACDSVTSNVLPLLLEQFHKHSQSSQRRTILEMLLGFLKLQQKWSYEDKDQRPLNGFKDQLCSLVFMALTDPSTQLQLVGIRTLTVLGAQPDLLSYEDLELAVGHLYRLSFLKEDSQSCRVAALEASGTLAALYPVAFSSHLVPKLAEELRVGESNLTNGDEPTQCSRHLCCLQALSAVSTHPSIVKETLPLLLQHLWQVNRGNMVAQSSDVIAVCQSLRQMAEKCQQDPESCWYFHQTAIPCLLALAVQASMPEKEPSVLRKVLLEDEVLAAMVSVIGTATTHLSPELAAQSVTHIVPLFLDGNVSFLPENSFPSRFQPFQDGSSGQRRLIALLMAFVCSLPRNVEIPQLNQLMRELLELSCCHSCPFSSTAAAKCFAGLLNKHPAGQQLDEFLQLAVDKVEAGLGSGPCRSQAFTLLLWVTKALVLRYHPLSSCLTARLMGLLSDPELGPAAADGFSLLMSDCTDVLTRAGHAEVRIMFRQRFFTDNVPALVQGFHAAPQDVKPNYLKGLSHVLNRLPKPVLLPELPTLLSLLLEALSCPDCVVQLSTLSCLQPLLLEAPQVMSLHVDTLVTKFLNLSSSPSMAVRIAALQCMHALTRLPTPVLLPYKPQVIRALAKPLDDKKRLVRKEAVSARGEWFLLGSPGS
UniProt Q96BX8: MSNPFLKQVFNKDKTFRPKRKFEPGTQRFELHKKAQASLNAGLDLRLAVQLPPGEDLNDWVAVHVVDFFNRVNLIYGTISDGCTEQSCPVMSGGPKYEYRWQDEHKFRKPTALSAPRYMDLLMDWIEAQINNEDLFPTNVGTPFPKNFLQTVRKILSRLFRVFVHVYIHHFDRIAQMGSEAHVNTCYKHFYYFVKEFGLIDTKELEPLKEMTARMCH
UniProt Q5XKP0: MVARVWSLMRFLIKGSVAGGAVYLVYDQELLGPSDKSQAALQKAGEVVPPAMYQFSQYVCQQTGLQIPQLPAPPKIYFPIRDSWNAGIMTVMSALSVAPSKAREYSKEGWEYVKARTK
UniProt Q99547: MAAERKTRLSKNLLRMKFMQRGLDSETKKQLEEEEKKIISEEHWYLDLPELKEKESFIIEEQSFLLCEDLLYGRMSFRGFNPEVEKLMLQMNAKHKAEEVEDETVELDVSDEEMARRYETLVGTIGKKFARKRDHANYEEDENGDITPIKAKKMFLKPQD
UniProt Q9BRT3: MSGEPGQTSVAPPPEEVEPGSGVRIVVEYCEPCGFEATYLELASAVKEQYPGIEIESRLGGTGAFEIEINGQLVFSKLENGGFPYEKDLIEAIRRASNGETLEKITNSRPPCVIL

The other results are listed elsewhere or left out.

Compound in the first assay: COc1cc2nc(-c3cc(F)ccc3O)nc(N[C@@H]3CNC[C@H]3C(C)(C)O)c2cc1OC
The assay can be described thus: log2 fold change, soluble protein after heating vs DMSO (PISA); higher = thermal stabilisation; K562 cells, 10 uM, 30 min; active = over 0.2 and 3.5 SD of the protein, either way, in both replicates (recomputed). An outline of the steps: (§1)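 Values are thermal stability changes relative to control samples and are taken from duplicates. They are stated as log2 fold changes. Before quantification by TMTpro 16plex LC-MS/MS with equalised channel sums, K562 cells at 2×10^6 cells/mL were treated with 10 μM compound for 30 min, heated in aliquots for 3 min across 48°C-58°C, pooled, extracted in PBS with 0.5% NP-40 at 4°C, and centrifuged at 21,000xg for 90 min to give the soluble supernatant.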
Regarding MRPL41 (UniProt Q8IXM3), the log2 fold change is inactive: -0.003.

With MMTAG2 (UniProt Q9BU76), the log2 fold change was inactive: -0.001.

In the case of MOCS2 (UniProt O96007), the log2 fold change is inactive: 0.061.

On to MMAB (UniProt Q96EY8), for which the log2 fold change is inactive: -0.028.

MPST isoform 2 (UniProt P25325): the log2 fold change is inactive: -0.009.

With MRPL53 (UniProt Q96EL3), the log2 fold change was inactive: -0.032.

On to MPI (UniProt P34949), for which the log2 fold change is inactive: 0.045.

Turning to MIF (UniProt P14174), the log2 fold change was inactive: -0.082.

Turning to MRPL50 (UniProt Q8N5N7), the log2 fold change was active: -0.719.

As for MRPL51 (UniProt Q4U2R6), the log2 fold change was inactive: -0.043.

As to MRPL42 (UniProt Q9Y6G3), the log2 fold change was inactive: -0.059.

MRPL45 (UniProt Q9BRJ2): the log2 fold change was inactive: 0.02.

For MIOS (UniProt Q9NXC5), the log2 fold change was inactive: 0.035.

For the target MRE11 isoform 3 (UniProt P49959), the log2 fold change is inactive: 0.01.

As for MPHOSPH8 isoform 2 (UniProt Q99549), the log2 fold change is inactive: 0.032.

Take MRPL19 (UniProt P49406): the log2 fold change is inactive: -0.067.

MIEF1 (UniProt L0R8F8): the log2 fold change was inactive: -0.148.

As for MRPL28 (UniProt Q13084), the log2 fold change is inactive: -0.018.

On to MIF4GD isoform 3 (UniProt A9UHW6), for which the log2 fold change was inactive: 0.038.

As to MRPL4 (UniProt Q9BYD3), the log2 fold change is inactive: -0.089.

Turning to MRPL46 (UniProt Q9H2W6), the log2 fold change is inactive: -0.088.

For MINK1 (UniProt Q8N4C8), the log2 fold change was inactive: -0.064.

Take MRPL20 (UniProt Q9BYC9): the log2 fold change is inactive: 0.052.

In the case of MRPL22 (UniProt Q9NWU5), the log2 fold change was inactive: 0.051.

Take MPZL1 (UniProt O95297): the log2 fold change was inactive: 0.111.

For MRPL27 (UniProt Q9P0M9), the log2 fold change is inactive: -0.023.

Take MKRN2 (UniProt Q9H000): the log2 fold change is inactive: 0.101.

Take MIPEP (UniProt Q99797): the log2 fold change was inactive: 0.021.

Turning to MRPL55 isoform 2 (UniProt Q7Z7F7), the log2 fold change was inactive: -0.048.

Turning to MRPL30 isoform 2 (UniProt Q8TCC3), the log2 fold change is inactive: -0.071.

MPC2 (UniProt O95563): the log2 fold change was inactive: 0.003.

For MMS19 isoform 8 (UniProt Q96T76), the log2 fold change is inactive: 0.06.

As to MOB3A (UniProt Q96BX8), the log2 fold change was inactive: -0.006.

For MICOS13 (UniProt Q5XKP0), the log2 fold change is inactive: -0.082.

As to MPHOSPH6 (UniProt Q99547), the log2 fold change is inactive: -0.018.

Take MKLN1 (UniProt Q9UL63): the log2 fold change is inactive: -0.021.

On to MINDY3 (UniProt Q9H8M7), for which the log2 fold change was inactive: 0.077.

For the target MRPL1 (UniProt Q9BYD6), the log2 fold change was inactive: -0.03.

Consider MIEN1 (UniProt Q9BRT3), for which the log2 fold change was inactive: 0.061.

Compound in another assay: COc1cc2ncnc(Nc3ccc(F)c(Cl)c3)c2cc1OCCCN1CCOCC1 [gefitinib]
The description is as above. In outline: as §1
With MRPL41 (UniProt Q8IXM3), the log2 fold change was inactive: -0.135.

For MMTAG2 (UniProt Q9BU76), the log2 fold change was inactive: -0.131.

Take MOCS2 (UniProt O96007): the log2 fold change is inactive: -0.01.

Consider MMAB (UniProt Q96EY8), for which the log2 fold change was inactive: -0.023.

As for MPST isoform 2 (UniProt P25325), the log2 fold change is inactive: 0.036.

With MRPL53 (UniProt Q96EL3), the log2 fold change was inactive: -0.054.

As to MPI (UniProt P34949), the log2 fold change was inactive: -0.018.

Consider MIF (UniProt P14174), for which the log2 fold change was inactive: 0.082.

For MRPL50 (UniProt Q8N5N7), the log2 fold change is inactive: 0.004.

Take MRPL51 (UniProt Q4U2R6): the log2 fold change was inactive: -0.088.

Turning to MRPL42 (UniProt Q9Y6G3), the log2 fold change was inactive: -0.063.

In the case of MRPL45 (UniProt Q9BRJ2), the log2 fold change was inactive: -0.132.

For MIOS (UniProt Q9NXC5), the log2 fold change was inactive: -0.006.

As to MRE11 isoform 3 (UniProt P49959), the log2 fold change is inactive: 0.044.

With MRPL19 (UniProt P49406), the log2 fold change was inactive: -0.034.

Consider MIEF1 (UniProt L0R8F8), for which the log2 fold change is inactive: -0.005.

On to MRPL28 (UniProt Q13084), for which the log2 fold change is inactive: -0.047.

With MIF4GD isoform 3 (UniProt A9UHW6), the log2 fold change is inactive: -0.074.

With MRPL4 (UniProt Q9BYD3), the log2 fold change is inactive: 0.014.

As to MRPL46 (UniProt Q9H2W6), the log2 fold change is inactive: 0.005.

MRPL20 (UniProt Q9BYC9): the log2 fold change was inactive: -0.019.

For the target MRPL22 (UniProt Q9NWU5), the log2 fold change is inactive: 0.007.

Take MPZL1 (UniProt O95297): the log2 fold change is inactive: 0.027.

Regarding MRPL27 (UniProt Q9P0M9), the log2 fold change was inactive: -0.008.

For MKRN2 (UniProt Q9H000), the log2 fold change was inactive: -0.099.

Turning to MIPEP (UniProt Q99797), the log2 fold change was inactive: 0.038.

In the case of MRPL55 isoform 2 (UniProt Q7Z7F7), the log2 fold change was inactive: -0.108.

Regarding MRPL30 isoform 2 (UniProt Q8TCC3), the log2 fold change is inactive: -0.051.

Take MPC2 (UniProt O95563): the log2 fold change is inactive: 0.005.

MMS19 isoform 8 (UniProt Q96T76): the log2 fold change is inactive: 0.026.

As for MOB3A (UniProt Q96BX8), the log2 fold change was inactive: -0.025.

With MICOS13 (UniProt Q5XKP0), the log2 fold change was inactive: -0.032.

MPHOSPH6 (UniProt Q99547): the log2 fold change is inactive: 0.023.

Regarding MKLN1 (UniProt Q9UL63), the log2 fold change is inactive: -0.039.

Consider MINDY3 (UniProt Q9H8M7), for which the log2 fold change was inactive: 0.031.

In the case of MRPL1 (UniProt Q9BYD6), the log2 fold change was inactive: -0.036.

In the case of MIEN1 (UniProt Q9BRT3), the log2 fold change was inactive: 0.027.
